Measurements from patent US20070293425A1.
Results are given in words; binding and its absence hold for the method and conditions named. Binding calls can cover weak binding; strength is not graded here.

Legend:
Gremlin = test: BIAcore, immobilised Gremlin
[1] = molecular target: Activin receptor II ectodomain; test: BIAcore, immobilised ARII ectodomain
[2] = molecular target: Activin receptor II ectodomain; test: BIAcore SPR, Activin receptor II ectodomain immobilised, analyte at 120 nM, response normalised to saturating BMP-2 = 100 %

Measured: binding

B1: BMP-2 D53P (ligand)
chain: QAKHKQRKRLKSSCKRHPLYVDFSDVGWNDWIVAPPGYHAFYCHGECPFPLAPHLNSTNHAIVQTLVNSVNSKIPKACCVPTELSAISMLYLDENEKVVLKNYQDMVVEGCGCR
binds: all assays above

B2: BMP-2 L51P (ligand)
chain: QAKHKQRKRLKSSCKRHPLYVDFSDVGWNDWIVAPPGYHAFYCHGECPFPPADHLNSTNHAIVQTLVNSVNSKIPKACCVPTELSAISMLYLDENEKVVLKNYQDMVVEGCGCR
binds: all assays above
